These results are taken from paper PMC3812021.

The chains behind the UniProt entries cited, without tags or fusion partners.
UniProt Q09472: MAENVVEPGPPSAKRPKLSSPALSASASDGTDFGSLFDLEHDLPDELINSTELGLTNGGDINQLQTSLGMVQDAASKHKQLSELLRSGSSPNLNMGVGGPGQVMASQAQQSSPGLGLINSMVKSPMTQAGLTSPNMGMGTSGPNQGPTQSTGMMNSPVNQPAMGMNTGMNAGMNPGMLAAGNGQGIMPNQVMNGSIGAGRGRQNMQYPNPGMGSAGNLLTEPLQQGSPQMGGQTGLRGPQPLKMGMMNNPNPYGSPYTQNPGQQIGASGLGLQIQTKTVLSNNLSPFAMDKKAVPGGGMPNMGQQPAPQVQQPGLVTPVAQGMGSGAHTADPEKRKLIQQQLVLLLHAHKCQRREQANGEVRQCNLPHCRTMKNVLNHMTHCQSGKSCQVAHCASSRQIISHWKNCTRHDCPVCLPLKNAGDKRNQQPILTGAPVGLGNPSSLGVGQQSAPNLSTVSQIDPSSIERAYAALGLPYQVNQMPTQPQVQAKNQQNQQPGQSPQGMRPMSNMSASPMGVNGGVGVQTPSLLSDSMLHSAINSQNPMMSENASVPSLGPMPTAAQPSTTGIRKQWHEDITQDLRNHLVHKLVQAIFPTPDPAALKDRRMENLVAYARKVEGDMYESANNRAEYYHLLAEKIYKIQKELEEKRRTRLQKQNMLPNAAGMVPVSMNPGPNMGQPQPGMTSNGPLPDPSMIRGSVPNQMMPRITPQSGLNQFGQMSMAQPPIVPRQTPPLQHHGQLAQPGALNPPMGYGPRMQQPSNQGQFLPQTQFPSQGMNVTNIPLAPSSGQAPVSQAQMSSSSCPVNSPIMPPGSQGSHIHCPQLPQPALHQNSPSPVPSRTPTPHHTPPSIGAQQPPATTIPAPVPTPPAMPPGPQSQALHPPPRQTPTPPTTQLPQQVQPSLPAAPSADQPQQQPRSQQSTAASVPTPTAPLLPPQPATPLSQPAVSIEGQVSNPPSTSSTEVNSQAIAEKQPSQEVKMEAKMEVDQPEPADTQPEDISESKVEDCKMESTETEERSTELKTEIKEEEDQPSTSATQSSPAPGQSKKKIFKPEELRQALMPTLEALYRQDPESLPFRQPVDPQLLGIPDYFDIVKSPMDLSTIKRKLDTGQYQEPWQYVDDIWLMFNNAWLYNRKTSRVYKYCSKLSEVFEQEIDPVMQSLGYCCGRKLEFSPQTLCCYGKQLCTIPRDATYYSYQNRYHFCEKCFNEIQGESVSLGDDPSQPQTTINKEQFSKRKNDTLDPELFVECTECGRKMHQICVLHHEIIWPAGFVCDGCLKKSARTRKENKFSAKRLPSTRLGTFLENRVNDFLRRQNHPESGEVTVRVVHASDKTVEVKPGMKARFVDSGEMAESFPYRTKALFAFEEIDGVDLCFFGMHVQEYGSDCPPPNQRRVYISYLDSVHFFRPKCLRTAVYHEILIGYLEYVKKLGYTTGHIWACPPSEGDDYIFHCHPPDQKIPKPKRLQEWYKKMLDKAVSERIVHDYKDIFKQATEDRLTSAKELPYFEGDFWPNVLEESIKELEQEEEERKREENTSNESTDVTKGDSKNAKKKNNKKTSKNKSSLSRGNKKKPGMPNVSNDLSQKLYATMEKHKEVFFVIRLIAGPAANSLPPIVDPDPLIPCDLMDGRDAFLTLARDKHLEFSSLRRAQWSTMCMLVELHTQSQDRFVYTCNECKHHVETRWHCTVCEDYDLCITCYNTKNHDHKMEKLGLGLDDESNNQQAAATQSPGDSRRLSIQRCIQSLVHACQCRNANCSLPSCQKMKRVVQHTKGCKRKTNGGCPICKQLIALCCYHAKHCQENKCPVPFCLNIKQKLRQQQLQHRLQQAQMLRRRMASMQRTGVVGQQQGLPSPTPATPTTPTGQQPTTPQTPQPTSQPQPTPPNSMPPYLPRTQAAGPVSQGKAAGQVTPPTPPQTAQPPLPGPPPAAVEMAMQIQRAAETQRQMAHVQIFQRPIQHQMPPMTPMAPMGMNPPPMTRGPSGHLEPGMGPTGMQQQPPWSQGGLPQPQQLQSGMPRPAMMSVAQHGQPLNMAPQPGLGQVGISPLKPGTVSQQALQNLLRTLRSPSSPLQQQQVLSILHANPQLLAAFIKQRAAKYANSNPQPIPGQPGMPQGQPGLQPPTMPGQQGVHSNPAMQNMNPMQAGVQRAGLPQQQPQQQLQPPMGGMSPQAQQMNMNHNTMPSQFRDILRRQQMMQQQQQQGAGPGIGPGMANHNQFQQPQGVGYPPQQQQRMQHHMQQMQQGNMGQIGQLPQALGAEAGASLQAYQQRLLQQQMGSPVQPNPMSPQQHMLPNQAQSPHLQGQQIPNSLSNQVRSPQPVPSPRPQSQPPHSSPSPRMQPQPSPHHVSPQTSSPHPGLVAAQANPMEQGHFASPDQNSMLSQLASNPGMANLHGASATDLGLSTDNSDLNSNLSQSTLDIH
UniProt Q15672: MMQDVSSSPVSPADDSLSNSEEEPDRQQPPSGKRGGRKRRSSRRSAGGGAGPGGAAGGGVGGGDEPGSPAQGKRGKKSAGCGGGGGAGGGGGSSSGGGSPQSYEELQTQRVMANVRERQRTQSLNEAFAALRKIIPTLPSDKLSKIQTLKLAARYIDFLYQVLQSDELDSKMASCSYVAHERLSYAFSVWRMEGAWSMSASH

These are yes or no findings as the source states them, for the method shown. In cells and extracts the contact can be indirect. Some binding calls cover weakened binding; strength is not graded here.

The test deals with p300 (human (endogenous in NCI-N87)) (UniProt Q09472). Put plainly: co-IP; NCI-N87 cell lysate (50 mM Tris-HCl pH 7.3-7.5, 120 mM NaCl, 1 mM EDTA, 0.5% Triton X-100, protease inhibitors) incubated with 2.5 ug p300 antibody or IgG overnight at 4 C; protein A beads 4 h; four washes with lysis buffer; blot for Twist 1.

For “Twist-related protein 1 (Twist1) (from UniProt Q15672 1-202)”, the binding result is on record as “binds”.
